Binding data for one substance are collected here from publication PMC12690526.

Sequences of proteins named here, by UniProt entry; tags and fusion partners are left off.
UniProt O75533: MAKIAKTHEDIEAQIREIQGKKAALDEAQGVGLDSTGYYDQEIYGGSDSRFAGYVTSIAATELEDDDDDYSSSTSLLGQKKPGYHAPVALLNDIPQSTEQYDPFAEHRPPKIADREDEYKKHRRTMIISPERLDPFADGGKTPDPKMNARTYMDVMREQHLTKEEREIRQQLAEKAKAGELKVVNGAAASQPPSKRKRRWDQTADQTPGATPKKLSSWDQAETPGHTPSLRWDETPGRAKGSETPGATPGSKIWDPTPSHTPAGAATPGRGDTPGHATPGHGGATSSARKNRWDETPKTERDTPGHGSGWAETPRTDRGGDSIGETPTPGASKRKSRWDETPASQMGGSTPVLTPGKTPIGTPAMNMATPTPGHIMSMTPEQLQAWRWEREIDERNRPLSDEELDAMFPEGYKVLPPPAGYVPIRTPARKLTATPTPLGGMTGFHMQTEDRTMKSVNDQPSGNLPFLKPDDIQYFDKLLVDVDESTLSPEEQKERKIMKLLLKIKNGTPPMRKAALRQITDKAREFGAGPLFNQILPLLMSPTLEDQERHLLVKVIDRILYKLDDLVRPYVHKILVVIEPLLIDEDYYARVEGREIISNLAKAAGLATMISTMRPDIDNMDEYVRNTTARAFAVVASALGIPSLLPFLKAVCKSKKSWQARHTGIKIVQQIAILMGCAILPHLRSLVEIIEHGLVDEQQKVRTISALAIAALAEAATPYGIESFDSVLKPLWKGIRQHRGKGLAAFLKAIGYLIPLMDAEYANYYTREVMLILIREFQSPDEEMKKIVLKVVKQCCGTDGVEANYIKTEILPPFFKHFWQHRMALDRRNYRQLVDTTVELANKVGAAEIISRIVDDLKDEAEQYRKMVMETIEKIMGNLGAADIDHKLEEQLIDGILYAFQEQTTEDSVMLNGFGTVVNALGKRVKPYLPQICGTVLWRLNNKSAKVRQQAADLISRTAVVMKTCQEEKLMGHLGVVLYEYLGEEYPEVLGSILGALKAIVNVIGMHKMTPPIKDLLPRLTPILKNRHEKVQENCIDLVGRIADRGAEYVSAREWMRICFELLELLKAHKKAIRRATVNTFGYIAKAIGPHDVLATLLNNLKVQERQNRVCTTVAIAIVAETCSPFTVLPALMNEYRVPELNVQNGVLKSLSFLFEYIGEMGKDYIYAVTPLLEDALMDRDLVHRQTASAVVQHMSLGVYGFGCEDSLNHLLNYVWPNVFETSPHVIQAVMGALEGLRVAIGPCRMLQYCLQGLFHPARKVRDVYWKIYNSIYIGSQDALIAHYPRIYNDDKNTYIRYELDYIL
UniProt Q9HCM7: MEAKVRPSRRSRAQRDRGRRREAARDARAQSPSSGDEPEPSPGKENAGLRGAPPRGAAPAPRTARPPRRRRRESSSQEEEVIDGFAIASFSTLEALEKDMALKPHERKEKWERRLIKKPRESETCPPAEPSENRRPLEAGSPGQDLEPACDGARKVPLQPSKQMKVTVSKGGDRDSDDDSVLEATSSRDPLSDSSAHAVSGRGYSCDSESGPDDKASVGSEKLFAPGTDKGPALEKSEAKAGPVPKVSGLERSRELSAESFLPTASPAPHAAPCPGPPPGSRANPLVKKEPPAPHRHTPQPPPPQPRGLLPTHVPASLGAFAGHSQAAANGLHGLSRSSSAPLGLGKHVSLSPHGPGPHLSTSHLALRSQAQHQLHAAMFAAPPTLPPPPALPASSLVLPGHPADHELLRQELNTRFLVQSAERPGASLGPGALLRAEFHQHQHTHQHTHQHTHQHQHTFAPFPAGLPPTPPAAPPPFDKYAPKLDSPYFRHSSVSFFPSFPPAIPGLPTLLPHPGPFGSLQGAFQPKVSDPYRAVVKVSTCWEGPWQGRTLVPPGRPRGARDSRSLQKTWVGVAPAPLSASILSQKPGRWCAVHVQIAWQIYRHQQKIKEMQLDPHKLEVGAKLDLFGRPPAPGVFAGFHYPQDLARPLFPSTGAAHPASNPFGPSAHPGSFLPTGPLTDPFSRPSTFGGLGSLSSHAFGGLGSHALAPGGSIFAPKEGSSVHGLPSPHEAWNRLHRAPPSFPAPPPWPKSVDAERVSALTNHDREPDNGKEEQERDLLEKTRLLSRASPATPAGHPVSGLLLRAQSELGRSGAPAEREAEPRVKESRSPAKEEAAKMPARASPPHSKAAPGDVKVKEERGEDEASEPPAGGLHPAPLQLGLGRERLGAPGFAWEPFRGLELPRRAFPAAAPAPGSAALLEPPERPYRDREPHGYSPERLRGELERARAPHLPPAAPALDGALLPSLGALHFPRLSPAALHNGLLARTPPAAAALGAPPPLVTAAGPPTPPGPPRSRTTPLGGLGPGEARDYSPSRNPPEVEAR

Results are given in words; binding and its absence hold for the method and conditions named.

This assay addresses human full-length SF3B1 (two-hybrid bait) (human) (UniProt O75533). The experiment in a line: two-hybrid; Matchmaker Gold system, S. cerevisiae Y2HGold; SF3B1 constructs as bait in pGBKT7, FBRSL1 isoforms as prey in pGADT7; growth on -LTHA selective plates, -LT plates as control of co-transformation.

“human FBRSL1 isoform 1 (two-hybrid prey) (from UniProt Q9HCM7 1-1045)”: the binding result is given as “no binding”.
